{"source": "the supplement of paper PMC8728848", "test_in_all_cases": "glycan array binding signal (z-score within array); higher = stronger binding", "settings_in_all_cases": "glycan notation: IUPAC condensed, linker removed", "key": {"[1]": {"target": "Gal(a1-3)Gal(b1-4)GlcNAc", "summary_of_the_method": "(§1)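 From the Consortium for Functional Glycomics database, 3228 arrays were curated, keeping only those whose protein sequence was available. Binding is given as a within-array Z-score averaged across arrays sharing a protein sequence and across linkers. Negative Z-scores can be read as non-binding.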"}, "[2]": {"target": "Gal(a1-3)Gal(b1-4)GlcNAc(b1-2)Man", "summary_of_the_method": "as §1"}, "[3]": {"target": "Gal(a1-3)Gal(b1-4)GlcNAc(b1-2)Man(a1-3)[Gal(a1-3)Gal(b1-4)GlcNAc(b1-2)Man(a1-6)]Man(b1-4)GlcNAc(b1-4)GlcNAc", "summary_of_the_method": "as §1"}, "[4]": {"target": "Gal(a1-3)Gal(b1-4)GlcNAc(b1-3)GalNAc", "summary_of_the_method": "as §1"}, "[5]": {"target": "Gal(a1-3)Gal(b1-4)GlcNAc(b1-6)GalNAc", "summary_of_the_method": "as §1"}, "[6]": {"target": "Gal(a1-3)Gal(b1-4)[Fuc(a1-3)]GlcNAc", "summary_of_the_method": "as §1"}, "[7]": {"target": "Gal(a1-3)Gal(b1-4)[Fuc(a1-3)]GlcNAc(b1-2)Man(a1-3)[Gal(a1-3)Gal(b1-4)[Fuc(a1-3)]GlcNAc(b1-2)Man(a1-6)]Man(b1-4)GlcNAc(b1-4)GlcNAc", "summary_of_the_method": "as §1"}, "[8]": {"target": "Gal(a1-3)GalNAc", "summary_of_the_method": "as §1"}, "[9]": {"target": "Gal(a1-3)[Gal(a1-4)]Gal(b1-4)GlcNAc", "summary_of_the_method": "as §1"}, "[10]": {"target": "Gal(a1-4)Gal(b1-3)GlcNAc(b1-2)Man(a1-3)[Gal(a1-4)Gal(b1-3)GlcNAc(b1-2)Man(a1-6)]Man(b1-4)GlcNAc(b1-4)GlcNAc", "summary_of_the_method": "as §1"}, "[11]": {"target": "Gal(a1-4)Gal(b1-4)Glc", "summary_of_the_method": "as §1"}, "[12]": {"target": "Gal(a1-4)Gal(b1-4)GlcNAc", "summary_of_the_method": "as §1"}, "[13]": {"target": "Gal(a1-4)Gal(b1-4)GlcNAc(b1-2)Man(a1-3)[Gal(a1-4)Gal(b1-4)GlcNAc(b1-2)Man(a1-6)]Man(b1-4)GlcNAc(b1-4)GlcNAc", "summary_of_the_method": "as §1"}, "[14]": {"target": "Gal(a1-4)Gal(b1-4)GlcNAc(b1-3)Gal(b1-4)Glc", "summary_of_the_method": "as §1"}, "[15]": {"target": "Gal(a1-4)GlcNAc", "summary_of_the_method": "as §1"}, "[16]": {"target": "Gal(a1-6)Glc", "summary_of_the_method": "as §1"}, "[17]": {"target": "Gal(b1-2)Gal", "summary_of_the_method": "as §1"}, "[18]": {"target": "Gal(b1-3)Gal", "summary_of_the_method": "as §1"}, "[19]": {"target": "Gal(b1-3)Gal(b1-4)GlcNAc", "summary_of_the_method": "as §1"}, "[20]": {"target": "Gal(b1-3)GalNAc", "summary_of_the_method": "as §1"}, "[21]": {"target": "Gal(b1-3)GalNAc(a1-3)[Fuc(a1-2)]Gal(b1-4)Glc", "summary_of_the_method": "as §1"}, "[22]": {"target": "Gal(b1-3)GalNAc(a1-3)[Fuc(a1-2)]Gal(b1-4)GlcNAc", "summary_of_the_method": "as §1"}, "[23]": {"target": "Gal(b1-3)GalNAc(b1-3)Gal", "summary_of_the_method": "as §1"}, "[24]": {"target": "Gal(b1-3)GalNAc(b1-3)Gal(a1-4)Gal(b1-4)Glc", "summary_of_the_method": "as §1"}, "[25]": {"target": "Gal(b1-3)GalNAc(b1-4)Gal(b1-4)Glc", "summary_of_the_method": "as §1"}, "[26]": {"target": "Gal(b1-3)GalNAc(b1-4)[Neu5Ac(a2-3)]Gal(b1-4)Glc", "summary_of_the_method": "as §1"}, "[27]": {"target": "Gal(b1-3)GlcNAc", "summary_of_the_method": "as §1"}, "[28]": {"target": "Gal(b1-3)GlcNAc(a1-3)Gal(b1-4)GlcNAc", "summary_of_the_method": "as §1"}, "[29]": {"target": "Gal(b1-3)GlcNAc(a1-6)Gal(b1-4)GlcNAc", "summary_of_the_method": "as §1"}, "[30]": {"target": "Gal(b1-3)GlcNAc(b1-2)Man", "summary_of_the_method": "as §1"}}, "note": "Some of the results follow."}
{"binder": "BT4246 (Bacteroides thetaiotaomicron), Q89ZX5 (protein) MGSSHHHHHHENLYFQGHMASDYLDVVPPEQPNIDDAMSSPTRALGFLYSCYGGVSTDLPSAYLGEINSTTDEYVLPYSWNTDGYWGAYAFNTASSTNQDWLWGTTYQYIGQCYLFLQKLENAGSDIASDAEKEQWRAECQFLVAYYHFATLRRYGPIPITDSYIPMDTPTSEYNGRFHFDYCVDWIANQLDEAAKVLPANRTVTNEWGRATSTIAKAVKARLLLYAASPLWNGSFPYPNWQNENFETPGYGKALVSNTYDKSKWERALAACQEALTLATTSGDRELYDDDEYYSRQSLNLPFVPGVADVEDNKEFLKNVMKMRYAVSTRESEGNKEIIWGLSNQFDFYSRYPLRILKKSDGTWHAGYSGVSPTLYTFEHFYTANGKLPEKDLDFTPSSEWFESAGISSREDIIKLNVGREPRFYAWMAFDGGDYGTKFAAGSPLKLEMRNSEMHGYNPSLFNRDHSVTGFLTQKFVDPVTEFYTAGGSTSGTSAPTILFRLAELYLNVAECHAALGNTQEAIDALNPVRERAGIPKLTLADITNNMTIKDWVHNERFVELWNEGHRFFDVRRWAEGAKYFGANKREGLNAEVQSPTFEEFNKRTTVDAPYVWENRMYLNPVFYNEVYKNPQMVQAPGY", "values": [{"measurement": "glycan array binding signal (z-score)", "setting": "[1]", "result": -0.182}, {"measurement": "glycan array binding signal (z-score)", "setting": "[2]", "result": -0.337}, {"measurement": "glycan array binding signal (z-score)", "setting": "[3]", "result": -0.729}, {"measurement": "glycan array binding signal (z-score)", "setting": "[4]", "result": -0.92}, {"measurement": "glycan array binding signal (z-score)", "setting": "[5]", "result": 0.354}, {"measurement": "glycan array binding signal (z-score)", "setting": "[6]", "result": -0.933}, {"measurement": "glycan array binding signal (z-score)", "setting": "[7]", "result": -1.29}, {"measurement": "glycan array binding signal (z-score)", "setting": "[8]", "result": 0.367}, {"measurement": "glycan array binding signal (z-score)", "setting": "[9]", "result": 0.656}, {"measurement": "glycan array binding signal (z-score)", "setting": "[10]", "result": 1.64}, {"measurement": "glycan array binding signal (z-score)", "setting": "[11]", "result": 0.019}, {"measurement": "glycan array binding signal (z-score)", "setting": "[12]", "result": -0.155}, {"measurement": "glycan array binding signal (z-score)", "setting": "[13]", "result": -0.235}, {"measurement": "glycan array binding signal (z-score)", "setting": "[14]", "result": -0.795}, {"measurement": "glycan array binding signal (z-score)", "setting": "[15]", "result": 0.366}, {"measurement": "glycan array binding signal (z-score)", "setting": "[16]", "result": 0.294}, {"measurement": "glycan array binding signal (z-score)", "setting": "[17]", "result": -0.225}, {"measurement": "glycan array binding signal (z-score)", "setting": "[18]", "result": -1.46}, {"measurement": "glycan array binding signal (z-score)", "setting": "[19]", "result": -1.2}, {"measurement": "glycan array binding signal (z-score)", "setting": "[20]", "result": 0.393}, {"measurement": "glycan array binding signal (z-score)", "setting": "[21]", "result": -0.41}, {"measurement": "glycan array binding signal (z-score)", "setting": "[22]", "result": -0.953}, {"measurement": "glycan array binding signal (z-score)", "setting": "[23]", "result": -1.43}, {"measurement": "glycan array binding signal (z-score)", "setting": "[24]", "result": 2.1}, {"measurement": "glycan array binding signal (z-score)", "setting": "[25]", "result": 2.02}, {"measurement": "glycan array binding signal (z-score)", "setting": "[26]", "result": -1.31}, {"measurement": "glycan array binding signal (z-score)", "setting": "[27]", "result": 0.859}, {"measurement": "glycan array binding signal (z-score)", "setting": "[28]", "result": 0.481}, {"measurement": "glycan array binding signal (z-score)", "setting": "[29]", "result": -0.068}, {"measurement": "glycan array binding signal (z-score)", "setting": "[30]", "result": -0.683}]}
